One molecule from patent EP4676953A2 can be followed below.

The chains behind the UniProt entries cited, without tags or fusion partners. Where a name states a change or a piece, a line headed by the entry shows the natural chain unless it says otherwise.
UniProt Q9Y337: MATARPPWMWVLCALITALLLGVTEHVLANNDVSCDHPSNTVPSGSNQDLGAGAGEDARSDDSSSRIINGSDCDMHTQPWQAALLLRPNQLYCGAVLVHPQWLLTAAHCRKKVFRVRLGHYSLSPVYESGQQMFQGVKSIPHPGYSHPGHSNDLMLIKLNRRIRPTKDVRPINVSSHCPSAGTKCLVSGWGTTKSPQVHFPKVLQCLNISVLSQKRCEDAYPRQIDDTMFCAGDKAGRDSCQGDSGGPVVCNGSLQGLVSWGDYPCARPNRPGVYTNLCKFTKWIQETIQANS

The experiment deals with active form of human KLK5 (huKLK5) (human) (UniProt Q9Y337). The experiment can be described thus: Biacore sandwich binning, SPINK5 coupled to CM5 chip (legend of FIG. 6). Background: SPR reads the build-up and loss of mass on a sensor chip optically.

No constants are given. Whether binding was seen depends on the method and setting. Binding can be weak; no strength is given.

B1: recombinant human SPINK5 (protein, UniProt Q9NQ38 490-757, looked up)
chain: EAAKEICSEFRDQVRNGTLICTREHNPVRGPDGKMHGNKCAMCASVFKLEEEEKKNDKEEKGKVEAEKVKREAVQELCSEYRHYVRNGRLPCTRENDPIEGLDGKIHGNTCSMCEAFFQQEAKEKERAEPRAKVKREAEKETCDEFRRLLQNGKLFCTRENDPVRGPDGKTHGNKCAMCKAVFQKENEERKRKEEEDQRNAAGHGSSGGGGGNTQDECAEYREQMKNGRLSCTRESDPVRDADGKSYNNQCTMCKAKLEREAERKNEY
In the case of B1, the binding entry is on record as “binds”.
